This is an account of results in paper PMC10592355.

Protein sequences, listed by entry. Tags and fused reporters are not part of them.
UniProt Q14839: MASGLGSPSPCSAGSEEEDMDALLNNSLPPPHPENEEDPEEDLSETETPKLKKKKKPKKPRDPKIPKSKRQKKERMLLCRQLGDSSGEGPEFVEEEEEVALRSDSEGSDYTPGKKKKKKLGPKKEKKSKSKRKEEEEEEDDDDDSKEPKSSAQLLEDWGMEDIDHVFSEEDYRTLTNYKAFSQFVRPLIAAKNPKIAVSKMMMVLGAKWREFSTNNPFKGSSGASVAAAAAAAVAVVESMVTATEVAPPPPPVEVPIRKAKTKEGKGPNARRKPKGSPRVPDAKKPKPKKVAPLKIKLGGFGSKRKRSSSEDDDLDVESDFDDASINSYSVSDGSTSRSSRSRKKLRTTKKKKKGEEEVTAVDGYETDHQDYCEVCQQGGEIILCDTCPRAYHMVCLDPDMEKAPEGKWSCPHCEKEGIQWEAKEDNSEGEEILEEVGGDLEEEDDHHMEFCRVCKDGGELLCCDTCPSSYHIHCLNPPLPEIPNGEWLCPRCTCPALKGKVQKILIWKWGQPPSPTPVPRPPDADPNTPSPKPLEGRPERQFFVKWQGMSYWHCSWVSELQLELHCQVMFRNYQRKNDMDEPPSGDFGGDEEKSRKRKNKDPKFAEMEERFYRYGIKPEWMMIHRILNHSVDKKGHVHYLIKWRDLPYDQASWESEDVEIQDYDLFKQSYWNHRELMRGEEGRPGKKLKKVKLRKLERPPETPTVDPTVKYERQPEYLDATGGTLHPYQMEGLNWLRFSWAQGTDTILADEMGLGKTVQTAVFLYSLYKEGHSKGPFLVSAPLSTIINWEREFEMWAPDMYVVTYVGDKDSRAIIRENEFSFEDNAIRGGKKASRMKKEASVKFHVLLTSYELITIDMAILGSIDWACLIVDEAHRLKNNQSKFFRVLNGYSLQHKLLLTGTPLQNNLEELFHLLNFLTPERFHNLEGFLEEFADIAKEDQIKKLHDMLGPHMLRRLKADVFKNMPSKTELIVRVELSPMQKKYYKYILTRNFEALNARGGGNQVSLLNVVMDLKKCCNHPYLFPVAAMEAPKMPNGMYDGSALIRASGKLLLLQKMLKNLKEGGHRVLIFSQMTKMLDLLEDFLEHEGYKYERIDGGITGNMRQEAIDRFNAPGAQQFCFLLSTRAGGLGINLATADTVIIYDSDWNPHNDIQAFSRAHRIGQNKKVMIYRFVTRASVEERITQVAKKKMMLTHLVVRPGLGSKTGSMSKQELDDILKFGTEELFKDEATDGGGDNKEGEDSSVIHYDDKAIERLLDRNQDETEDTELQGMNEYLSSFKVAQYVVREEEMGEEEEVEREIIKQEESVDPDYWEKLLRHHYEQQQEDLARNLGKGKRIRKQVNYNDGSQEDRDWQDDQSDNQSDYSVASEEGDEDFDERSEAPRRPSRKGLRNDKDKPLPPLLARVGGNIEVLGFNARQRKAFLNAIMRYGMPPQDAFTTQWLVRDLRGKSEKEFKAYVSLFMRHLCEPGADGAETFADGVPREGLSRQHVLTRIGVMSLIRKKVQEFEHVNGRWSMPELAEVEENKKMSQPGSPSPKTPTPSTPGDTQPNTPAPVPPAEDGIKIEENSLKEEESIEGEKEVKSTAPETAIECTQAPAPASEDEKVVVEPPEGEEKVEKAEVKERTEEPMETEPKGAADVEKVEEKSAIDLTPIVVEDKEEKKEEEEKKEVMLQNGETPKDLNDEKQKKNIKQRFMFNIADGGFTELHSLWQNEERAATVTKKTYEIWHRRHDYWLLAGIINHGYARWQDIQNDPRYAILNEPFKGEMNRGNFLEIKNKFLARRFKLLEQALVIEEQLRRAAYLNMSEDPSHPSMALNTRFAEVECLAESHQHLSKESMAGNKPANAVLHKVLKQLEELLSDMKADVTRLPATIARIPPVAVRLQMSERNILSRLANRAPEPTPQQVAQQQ
UniProt Q13547: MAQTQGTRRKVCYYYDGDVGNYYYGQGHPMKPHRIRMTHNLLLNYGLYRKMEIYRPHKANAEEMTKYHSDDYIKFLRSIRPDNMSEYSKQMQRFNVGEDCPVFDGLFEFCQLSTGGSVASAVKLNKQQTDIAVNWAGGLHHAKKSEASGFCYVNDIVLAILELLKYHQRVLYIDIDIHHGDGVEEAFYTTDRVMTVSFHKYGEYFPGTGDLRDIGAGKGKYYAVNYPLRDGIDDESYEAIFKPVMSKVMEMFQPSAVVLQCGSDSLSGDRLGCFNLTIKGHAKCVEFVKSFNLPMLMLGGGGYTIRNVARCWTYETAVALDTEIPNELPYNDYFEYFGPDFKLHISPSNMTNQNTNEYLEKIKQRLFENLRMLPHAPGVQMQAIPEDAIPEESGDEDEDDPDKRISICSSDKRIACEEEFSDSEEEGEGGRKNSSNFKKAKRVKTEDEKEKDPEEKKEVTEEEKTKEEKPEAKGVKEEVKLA
UniProt Q92769: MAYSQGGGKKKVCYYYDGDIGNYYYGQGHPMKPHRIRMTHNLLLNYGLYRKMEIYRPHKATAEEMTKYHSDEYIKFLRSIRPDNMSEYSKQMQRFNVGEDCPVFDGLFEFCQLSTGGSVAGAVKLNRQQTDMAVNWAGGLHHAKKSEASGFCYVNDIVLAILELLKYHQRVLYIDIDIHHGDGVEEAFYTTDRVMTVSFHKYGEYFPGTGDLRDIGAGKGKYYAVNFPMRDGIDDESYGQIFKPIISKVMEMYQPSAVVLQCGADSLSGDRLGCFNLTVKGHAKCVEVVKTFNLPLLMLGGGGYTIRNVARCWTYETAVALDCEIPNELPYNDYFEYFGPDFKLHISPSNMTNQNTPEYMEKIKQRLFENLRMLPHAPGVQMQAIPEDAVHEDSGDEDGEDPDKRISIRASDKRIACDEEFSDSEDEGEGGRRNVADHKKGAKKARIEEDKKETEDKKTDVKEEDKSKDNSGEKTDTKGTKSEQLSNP

No constants are given. Whether binding was seen depends on the method and setting. Binding seen in cells or lysates may run through a third protein. Some binding calls cover weakened binding; strength is not graded here.

The experiment concerns the target T1, tyrosyl-tRNA synthetase (TyrRS) (human (endogenous in HEK293)) (UniProt P54577).
T1 sequence: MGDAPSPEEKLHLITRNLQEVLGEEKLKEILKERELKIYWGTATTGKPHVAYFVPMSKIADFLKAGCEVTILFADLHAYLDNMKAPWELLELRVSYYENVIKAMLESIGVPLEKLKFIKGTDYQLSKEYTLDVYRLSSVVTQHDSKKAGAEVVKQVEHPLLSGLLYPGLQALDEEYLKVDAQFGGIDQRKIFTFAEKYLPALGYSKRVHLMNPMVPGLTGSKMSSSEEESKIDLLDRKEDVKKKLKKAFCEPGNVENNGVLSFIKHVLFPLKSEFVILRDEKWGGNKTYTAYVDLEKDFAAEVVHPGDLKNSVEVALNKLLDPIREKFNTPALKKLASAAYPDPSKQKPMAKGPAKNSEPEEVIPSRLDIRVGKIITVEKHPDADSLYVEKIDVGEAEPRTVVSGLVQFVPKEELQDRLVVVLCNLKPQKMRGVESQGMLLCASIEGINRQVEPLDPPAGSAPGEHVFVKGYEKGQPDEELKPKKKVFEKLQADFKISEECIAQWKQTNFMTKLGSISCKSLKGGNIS
The experiment is described as follows: co-IP; HEK293 cell lysates mixed overnight with Protein G beads pre-incubated with anti-TyrRS antibody; washed 3 times with 100 mM NaCl, 50 mM Tris, pH 7.5, 0.1% Triton X-100, 5% glycerol; Western blot.
On to CHD4 (from UniProt Q14839 1-1912), for which the binding result is “binds”.

HDAC1 (from UniProt Q13547 1-482): the binding entry is on record as “binds”.

HDAC2 (from UniProt Q92769 1-488): the binding result is “binds”.
